Test results reported in the supplement of paper PMC3334620.
In all, about 33,000 sequences were measured (“E-score (-0.5 to 0.5)”: median about -0.015, highest 2% from about 0.3 on). This is one part of the list.

biological target: T1, Abf1 (UniProt P14164); assay: PBM E-score (8-mer binding enrichment) (E-score (-0.5 to 0.5)); higher = stronger / more preferred TF binding; conditions: protein concentration: 200 nM; construct: GST-full length
T1 sequence: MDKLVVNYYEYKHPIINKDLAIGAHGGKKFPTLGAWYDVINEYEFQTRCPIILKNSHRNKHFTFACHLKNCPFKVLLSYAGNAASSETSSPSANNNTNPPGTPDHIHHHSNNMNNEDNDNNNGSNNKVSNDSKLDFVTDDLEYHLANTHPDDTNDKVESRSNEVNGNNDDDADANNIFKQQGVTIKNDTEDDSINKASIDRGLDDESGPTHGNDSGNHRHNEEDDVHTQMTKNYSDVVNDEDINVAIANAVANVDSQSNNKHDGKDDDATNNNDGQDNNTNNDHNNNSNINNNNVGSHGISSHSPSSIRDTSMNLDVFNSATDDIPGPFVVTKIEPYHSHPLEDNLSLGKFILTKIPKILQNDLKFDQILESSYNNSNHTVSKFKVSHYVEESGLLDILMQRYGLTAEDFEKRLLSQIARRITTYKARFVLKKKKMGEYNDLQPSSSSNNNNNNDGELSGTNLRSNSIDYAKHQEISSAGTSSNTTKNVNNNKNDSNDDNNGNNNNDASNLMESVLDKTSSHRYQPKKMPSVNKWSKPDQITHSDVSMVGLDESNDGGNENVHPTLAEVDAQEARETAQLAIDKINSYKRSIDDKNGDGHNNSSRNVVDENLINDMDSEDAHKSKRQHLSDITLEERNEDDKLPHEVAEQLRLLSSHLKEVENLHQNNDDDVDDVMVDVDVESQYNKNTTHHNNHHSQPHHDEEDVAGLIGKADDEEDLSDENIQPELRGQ
Method in brief: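 Detection of bound protein used fluorescent anti-GST, with scans normalised by masliner. The proteins were GST-tagged yeast transcription factors applied at about 100-200 nM to universal all-10-mer Agilent arrays made double-stranded by primer extension. Each ungapped eight-base word, pooled with its reverse complement, was scored with an E-score from the Universal PBM Analysis Suite.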

| Sequence | PBM E-score |
| --- | --- |
| AGGCCTAA | 0.0287 |
| GATCCCTA | 0.0759 |
| GTCGGTGA | 0.114 |
| CACGAAAA | 0.31 |
| ACCTTGTA | 0.0842 |
| AAGCTGCC | -0.0332 |
| AATCCTCA | 0.0253 |
| CAAAACTA | 0.108 |
| GACGCACC | -0.0524 |
| GGATCGAA | -0.0225 |
| AAATAGCG | 0.0639 |
| CAACCGTA | 0.181 |
| CGCTATCA | 0.0401 |
| ACGCTGCA | -0.159 |
| CCGAGAAC | 0.014 |
| AACCTCTT | 0.00815 |
| AACGCTAC | -0.172 |
| GCAAATCA | 0.141 |
| ATATCGTC | 0.336 |
| AAGCTCAT | -0.0172 |
| CCTCACCC | -0.106 |
| GCTCTCAC | -0.204 |
| AGGATCCA | -0.215 |
| CGCCTGCC | -0.128 |
| GCTACCGA | -0.0534 |

| Sequence | PBM E-score |
| --- | --- |
| AAGTCCGC | -0.214 |
| CTCCGCTA | -0.182 |
| ACAGAACG | 0.12 |
| AGGTCCGG | -0.233 |
| AACAATGC | 0.0685 |
| CAGAGGCC | -0.259 |
| CACTGCGG | -0.201 |
| TCTCCACA | -0.037 |
| GCGCACGA | 0.0514 |
| GGATATCA | 0.247 |
| GTATGGAC | 0.143 |
| ACGAGATA | 0.221 |
| GAAAATCC | 0.0503 |
| AAGGACCC | -0.134 |
| AAGACCCT | -0.235 |
| CCGTAATC | 0.218 |
| CACTTGGC | -0.195 |
| AACTCCCC | -0.128 |
| TCTACTCA | 0.0326 |
| CCTATTCA | -0.0192 |
| CCTTAGAG | -0.149 |
| CCGTCGTA | 0.282 |
| GAGAGGAC | -0.077 |
| CCTCAGCA | 0.0358 |
| CGAACTCG | 0.101 |

7 entries picked at random from the list so far:

| Sequence | PBM E-score |
| --- | --- |
| CACGAAAA | 0.31 |
| AAATAGCG | 0.0639 |
| CCTCACCC | -0.106 |
| ACAGAACG | 0.12 |
| AACAATGC | 0.0685 |
| AAGGACCC | -0.134 |
| CCTTAGAG | -0.149 |

(listing goes on)

| Sequence | PBM E-score |
| --- | --- |
| AGGCGATG | -0.0382 |
| ACTCGCAG | -0.0529 |
| GAACTGTC | 0.0782 |
| TTATAAAA | 0.151 |
| GTCTATTA | -0.0181 |
| CTTTAGAC | 0.0745 |
| AATTCCCC | -0.0902 |
| CGTGGTTC | 0.0193 |
| CACCCGTG | -0.0574 |
| CTAGGAAG | -0.18 |
| TCCTGTCA | 0.0703 |
| AAGTACAT | 0.15 |
| GGAATGAA | -0.116 |
| TCAGTAGA | -0.0357 |
| ACTGCCCC | -0.176 |
| AAGTTCGC | -0.00117 |
| ATAAATAG | 0.104 |
| CTGCAGAC | -0.162 |
| GCATTATA | 0.0562 |
| AGGCCTAG | -0.0501 |
| AACCCTAT | -0.117 |
| AGTTCAAA | 0.0194 |
| CAGAATAA | 0.00085 |
| GCTCAATA | 0.127 |
| CCAGATAC | -0.082 |

| Sequence | PBM E-score |
| --- | --- |
| GGTGCGAC | 0.0192 |
| CAATCTAC | -0.0654 |
| CGTCTAAA | 0.153 |
| CCGGCATA | 0.0154 |
| CTGAGTAC | -0.265 |
| GCTCGGCA | -0.0163 |
| CAACAACG | 0.158 |
| CCTTTAGA | -0.115 |
| CCGATAGA | -0.047 |
| ACGGTATC | 0.182 |
| ATCGTGAA | 0.165 |
| CAGTAAAA | 0.0609 |
| CTAATGAC | 0.0613 |
| CCAGAAAA | 0.00653 |
| CCGTGGTA | 0.072 |
| AACGGCCC | -0.137 |
| CATCATAA | 0.136 |
| CGCAATGA | 0.105 |
| ATCAGTAA | 0.134 |
| GGTCGACC | 0.12 |
| CTTCTTCA | -0.00012 |
| GCAATAGC | -0.202 |
| GCAAAATA | 0.101 |
| CATGCCCG | 0.0779 |
| ATGCGTCG | 0.147 |

| Sequence | PBM E-score |
| --- | --- |
| TAAGAATA | 0.0017 |
| AATGATAT | 0.436 |
| GTGCCTAA | -0.0654 |
| GACGGCTA | 0.0813 |
| AGGGACAT | 0.0319 |
| ACAGAGTG | 0.0326 |
| AGAATAAA | 0.0955 |
| AGCGACCG | 0.0741 |
| CAACAGGG | -0.245 |
| AACGGCGG | 0.176 |
| CCGTACGG | 0.29 |
| AAAGTATA | 0.101 |
| ACAGTGGG | -0.169 |
| ATAACGAA | 0.268 |
| CTTGTTCA | -0.0789 |
| CAAGCACA | -0.164 |
| AATAATTG | 0.169 |
| CAAGGTTA | 0.0302 |
| ACCTCCGC | 0.0265 |
| CAGACCAA | -0.132 |
| TGCCAGCA | -0.0616 |
| GTCGTGAA | 0.279 |
| GCGGTACC | -0.116 |
| GAGATCAC | 0.347 |
| AGAAGTAC | -0.192 |

Exported bar-delimited: entries from further up
Sequence | PBM E-score
CTTGTTCA | -0.0789
CAAGCACA | -0.164

Remaining list, next part.

| Sequence | PBM E-score |
| --- | --- |
| AAAGTAAT | 0.0732 |
| TGCGCAAA | 0.0302 |
| AACACACA | 0.0634 |
| GAATTAGC | 0.0828 |
| TCACAGCA | 0.0235 |
| GAAGTCCC | -0.296 |
| GACGGGAA | 0.098 |
| GAACCCAC | 0.0639 |
| TGTACCAA | 0.0776 |
| ACCGGCCG | -0.0185 |
| AGATTTCG | 0.0655 |
| CATTTCTA | 0.173 |
| AGAGTTGA | 0.0576 |
| ATGATACG | 0.305 |
| CTCTGGCC | -0.281 |
| GTGACCAA | 0.229 |
| CTTTATCC | -0.0621 |
| GTAACGTA | 0.139 |
| ATTGGCTA | 0.0308 |
| AATTCTAG | 0.0424 |
| CTCGGCAA | -0.0896 |
| CAAGCAAC | 0.137 |
| ACCGAAGA | -0.0637 |
| AGGATACC | 0.0364 |
| AGGCACTA | -0.0974 |

| Sequence | PBM E-score |
| --- | --- |
| ATACGTCC | 0.12 |
| AGCTAGCG | -0.0762 |
| AATCAATT | 0.0887 |
| CCTATAAG | -0.23 |
| AGGTGGAA | 0.0882 |
| ACAAGTCG | -0.21 |
| ACAGATCC | -0.092 |
| AAACACGT | -0.178 |
| AGTTTAGA | -0.0102 |
| CTGAGCAC | -0.0119 |
| AGTCCTGC | -0.207 |
| CCCCCTGC | -0.344 |
| AACTATCT | -0.0536 |
| GTAATCAA | 0.229 |
| CTATTCGC | -0.0685 |
| GAGGTACA | -0.0744 |
| GCAGACGC | -0.063 |
| AAGGGGTC | -0.276 |
| GCCTCCCC | -0.344 |
| CTCGTCGA | 0.165 |
| AACTGAAT | -0.0812 |
| AGGGTGAG | -0.102 |
